Measurements reported in PubChem BioAssay AID602196 (INSERM, 2012)
Here is a random part of about 23,000 deposited reagents. 455 of them (2%) count as active. 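Active includes both protection and sensitisation; some change values fall well beyond the stated -50 to +50 range.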 Not all columns of the deposit are shown. Not given: the amount of reagent.

Aim: 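Genes whose knock-down alters cisplatin killing of lung cancer cells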
System: human A549 lung cancer cells
Reagents: siRNA pair against human genes
Timing: 48 h transfection before cisplatin; time from cisplatin to read-out not stated
Challenge: cisplatin at a dose killing half of control-siRNA cells; exact dose and duration not given
Measurement: 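Shift in cisplatin death relative to control siRNA, from -50 (all cells die) to +50 (no cells die); siRNAs harmful on their own scored 0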
Direction: two-siRNA summed score (-2 to +2): higher = both siRNAs protect from cisplatin killing; -2 means both sensitise; mean protection from cisplatin (shift in death): higher = protection from cisplatin killing
Rule for the call: 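Each siRNA scores 0 if harmful alone by LDH or WST-1, otherwise +1 if it reduces and -1 if it increases cisplatin killing; a gene is active when both siRNAs agree (sum +2 or -2)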
Calls: active = both siRNAs shift cisplatin killing the same way; inactive = no consistent shift, or siRNA harmful alone

Silencing of RPL35P10 came out at: two-siRNA summed score (-2 to +2) = 1; mean protection from cisplatin (shift in death) (%) = 13.3; inactive.
Knock-down of PRDM11 resulted in: two-siRNA summed score (-2 to +2) = 0; mean protection from cisplatin (shift in death) (%) = 2.4; inactive.
Silencing of ZNF706 gave: two-siRNA summed score (-2 to +2) = 0; mean protection from cisplatin (shift in death) (%) = 12.9; inactive.
Against LOC441896, the entry reads two-siRNA summed score (-2 to +2) = 0; mean protection from cisplatin (shift in death) (%) = 8.3; inactive.
For DCAF10, the values are two-siRNA summed score (-2 to +2) = 0; mean protection from cisplatin (shift in death) (%) = 9.8; inactive.
Silencing of WFIKKN2 gave: two-siRNA summed score (-2 to +2) = 1; mean protection from cisplatin (shift in death) (%) = 20.3; inactive.
After knock-down of LOC440135, the record shows two-siRNA summed score (-2 to +2) = 0; mean protection from cisplatin (shift in death) (%) = 9.8; inactive.
FLII gave two-siRNA summed score (-2 to +2) = 1; mean protection from cisplatin (shift in death) (%) = 2.7; inactive.
After knock-down of BTN2A3P, the record shows two-siRNA summed score (-2 to +2) = -1; mean protection from cisplatin (shift in death) (%) = -16.6; inactive.
Knock-down of TMCO2 resulted in: two-siRNA summed score (-2 to +2) = 1; mean protection from cisplatin (shift in death) (%) = 11.8; inactive.
Depletion of ZNF875 resulted in: two-siRNA summed score (-2 to +2) = 0; mean protection from cisplatin (shift in death) (%) = 12.7; inactive.
After knock-down of LOC442096, the screen gave two-siRNA summed score (-2 to +2) = 0; mean protection from cisplatin (shift in death) (%) = 13.2; inactive.
SLC60A1 showed two-siRNA summed score (-2 to +2) = 0; mean protection from cisplatin (shift in death) (%) = 5; inactive.
CLEC1B showed two-siRNA summed score (-2 to +2) = 0; mean protection from cisplatin (shift in death) (%) = -5.2; inactive.

A few values from the list.
LOC441896, mean protection from cisplatin (shift in death) (%) → 8.3
SLC60A1, Call: inactive
For “Call”, RPL35P10 shows inactive
BTN2A3P, two-siRNA summed score (-2 to +2): -1
For “two-siRNA summed score (-2 to +2)”, ZNF875 shows 0

Continued.
For RIMS1, the entry reads two-siRNA summed score (-2 to +2) = 1; mean protection from cisplatin (shift in death) (%) = 13.6; inactive.
For ZNF595, the entry reads two-siRNA summed score (-2 to +2) = 0; mean protection from cisplatin (shift in death) (%) = 7.2; inactive.
Depletion of EMP3 gave: two-siRNA summed score (-2 to +2) = 2; mean protection from cisplatin (shift in death) (%) = 19.3; active.
Knock-down of SPRR1B gave: two-siRNA summed score (-2 to +2) = 0; mean protection from cisplatin (shift in death) (%) = -8.6; inactive.
For REEP5 the deposit lists two-siRNA summed score (-2 to +2) = 1; mean protection from cisplatin (shift in death) (%) = 10.9; inactive.
Knock-down of UNQ9370 (retired record) came out at: two-siRNA summed score (-2 to +2) = 0; mean protection from cisplatin (shift in death) (%) = -12.1; inactive.
With knock-down of ABHD17B the results were two-siRNA summed score (-2 to +2) = 0; mean protection from cisplatin (shift in death) (%) = -1.5; inactive.
LY6G6F showed two-siRNA summed score (-2 to +2) = 0; mean protection from cisplatin (shift in death) (%) = 3.4; inactive.
Depletion of OR8H2 resulted in: two-siRNA summed score (-2 to +2) = 0; mean protection from cisplatin (shift in death) (%) = -2.3; inactive.
Knock-down of CATSPER1 came out at: two-siRNA summed score (-2 to +2) = 0; mean protection from cisplatin (shift in death) (%) = 12.1; inactive.
UBTD1 gave two-siRNA summed score (-2 to +2) = 0; mean protection from cisplatin (shift in death) (%) = 9.3; inactive.
Silencing of ANXA9 gave: two-siRNA summed score (-2 to +2) = 0; mean protection from cisplatin (shift in death) (%) = 6.1; inactive.
Depletion of OR1N2 came out at: two-siRNA summed score (-2 to +2) = 0; mean protection from cisplatin (shift in death) (%) = -1.2; inactive.
HISLA scored two-siRNA summed score (-2 to +2) = 0; mean protection from cisplatin (shift in death) (%) = 9.9; inactive.
RAD50 scored two-siRNA summed score (-2 to +2) = 0; mean protection from cisplatin (shift in death) (%) = 1.7; inactive.
After knock-down of ZDHHC4, the record shows two-siRNA summed score (-2 to +2) = 0; mean protection from cisplatin (shift in death) (%) = 12.6; inactive.
After knock-down of EPN1, the screen gave two-siRNA summed score (-2 to +2) = 0; mean protection from cisplatin (shift in death) (%) = 11.5; inactive.
